Record: PubChem BioAssay AID743454 (Peter MacCallum Cancer Centre, 2014)
Screen: 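Search for knock-downs that restore vorinostat killing in resistant colon cancer cells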 (primary screen). Cells: human HCT116-VR colon cancer cells, selected for vorinostat resistance. Reagent: siRNA pool against human genes, 40 nM siRNA pool. Timing: vorinostat for 24 h, read-out about 72 h after transfection. Treatment: vorinostat at 2.5 µM final. Detection: 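Cell viability by CellTiter-Fluor and caspase 3/7 activity by luminescence, each scaled to mock wells per plate, duplicates averaged, then robust z-scored over all plates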. Direction: viability robust z-score: higher = more viable cells than screen typical; caspase robust z-score: higher = more caspase 3/7 activity than screen typical. Hit rule: 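a knock-down is a hit when classed RV1 or RV2 for lowered viability, or CA1 or CA2 for caspase activation; those lethal without drug were dropped; hits were retested singly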.
The whole screen tested about 18,000 reagents; this is a random part of them. 450 of all reagents (2.5%) count as active. 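Single biological run; no consistent viability z cut-off exists, so the class columns, not z-scores, define the calls.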 A number with no mark means an inactive call. The numbers tell different reagents against one gene apart.

The first 4 records, to show the layout:
Target gene	reagent	viability hit class	caspase hit class	viability robust z-score	caspase robust z-score
SETD5	1	no change	no change	0	-0.09
HOOK2	1	no change	no change	-0.33	-0.44
SMAD9	1	no change	no change	0.98	-0.08
TRMT6	1	no change	no change	0.05	1.67

Main list, from the first entry:
Target gene	reagent	viability hit class	caspase hit class	viability robust z-score	caspase robust z-score
SETD5	1	no change	no change	0	-0.09
HOOK2	1	no change	no change	-0.33	-0.44
SMAD9	1	no change	no change	0.98	-0.08
TRMT6	1	no change	no change	0.05	1.67
LEO1	1	no change	no change	0.49	-0.52
MTOR	1	no change	no change	-2	2.71
TIGD3	1	no change	no change	-1.35	0.7
ZKSCAN2	1	no change	no change	0.76	-0.7
SPTSSB	1	no change	no change	-0.44	-1.29
FNDC1	1	no change	no change	-0.4	0.36
SIM1	1	no change	no change	0.58	1.52
DRAM1	1	no change	no change	1.41	-0.75
SLC6A8	1	no change	no change	-0.52	0.86
GDI2	1	no change	no change	0.26	-0.22
MAGEH1	1	no change	no change	-1.66	4.67
CNR1	1	no change	no change	1.04	-0.38
CDK13	1	no change	no change	1.32	-0.32
FBLN2	1	no change	no change	-0.43	0.3
TAS2R39	1	no change	no change	-0.06	-0.8
EMC9	1	no change	no change	1.26	1.21
DUSP4	1	no change	no change	-0.19	-0.83
MTG2	1	no change	no change	-1.02	2.52
POU3F2	1	no change	no change	-1.14	1.96
DCAF16	1	no change	no change	0.24	-0.68
CBX6	1	no change	no change	-0.24	1.97
ZBTB45	1	no change	no change	-0.63	4.24
FAM220A	1	no change	no change	-0.18	-0.68
DONSON	1	no change	no change	-3.41	4.3
CCDC157	1	no change	no change	-1.54	4.04
PLA2G12B	1	no change	no change	-1.27	2.88
TGIF1	1	no change	no change	0.57	-0.68
NUFIP2	1	no change	no change	-1.19	-0.15
ARHGAP15	1	no change	no change	1.4	-0.5
SMIM43	1	no change	no change	-0.78	3.82
CCNT1	1	no change	no change	-0.02	-0.23
UBE2T	1	no change	no change	-1.64	0.37
FCSK	1	no change	no change	-1.48	-0.03
SEC24B	1	no change	no change	-0.31	-0.52
SPATA2L	1	no change	no change	-1.94	0
ZNF117	1	no change	no change	-1.54	-0.48
PRADC1	1	no change	no change	-0.41	0.02
MYO18A	1	no change	no change	0.8	3.13
MYO18A	2	no change	no change	-0.05	-0.63
NEDD4	1	no change	no change	-0.12	-0.24
CAVIN2	1	no change	no change	0.99	-0.32
APEX1	1	no change	no change	0.2	0.02
ESRRG	1	no change	no change	0.21	-1.12
C1QTNF6	1	no change	no change	-2.86	1.4
SLC16A6	1	no change	no change	-0.56	-0.48
NXPE3	1	no change	no change	-0.47	-0.33
MAP4K3	1	no change	no change	-0.85	-0.63
SLC22A16	1	no change	no change	-1.48	-1
PRICKLE4	1	no change	no change	0.84	-0.04
WDPCP	1	no change	no change	1.02	2.76
GOLGA8B	1	no change	no change	-0.38	-0.68
C1orf226	1	no change	no change	0.14	4.19
PRMT1	1	no change	no change	-1.22	1.33
